The list shows a part of the results. The main result of the screen is listed elsewhere. These columns were measured beside it and carry no call. The list favours compounds with an active or inconclusive main result. Potencies come from curve fits of mixed quality, noted in brackets.
Experiment: qHTS Assay to Find Inhibitors of Chronic Active B-Cell Receptor Signaling
Conditions: ABC-DLBCL IkBa-CBG/CBR reporter, luminescence ratio (green luciferase fused to IkBa over red control in TMD8 lymphoma cells), 4 h
Procedure, shortened: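 Concentration-response series (up to 46 uM) were applied to TMD8 dual-reporter cells for 4 h at 37C with doxycycline. Green/red ratio, after filter-overlap correction, defined %Activity; red signal alone was normalised to basal cells and zero luminescence.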

[1] = measured here: CBR red luminescence, cell number
[2] = measured here: IkBa-CBG green luminescence

SMILES: COc1cccc(NC(=O)N2CCC(NC(=O)C(Cc3ccccc3F)NC(C)=O)CC2)c1 (stereo not drawn)
- AC50 [1]: 35.5 µM [falling, partial curve, poor fit]

SMILES: Cc1cc(C(=O)Nc2ccc(Cl)cc2)c2ccccc2n1
- AC50 [1]: 22.4 µM [rising, single point]

SMILES: O=C(Nc1nc2c(s1)CN(Cc1ccccc1)CC2)C1CCC1
- AC50 [1]: 35.5 µM [rising, partial curve, poor fit]

SMILES: C=CCSc1nnc(-c2cc3c(s2)-c2ccccc2CC3)o1
- AC50 [1]: 0.82 µM [rising, full curve, poor fit]

SMILES: COc1ccc(C(=O)NCCCNC(=O)c2cnccn2)cc1Br
- AC50 [1]: 0.0891 µM [rising, full curve, poor fit]

SMILES: CC(C)CCC(CCNCc1ccccn1)c1ccc(Cl)cc1 (stereo not drawn)
- AC50 [1]: 25.1 µM [falling, single point]

SMILES: COc1ccc2cc(-c3ccon3)ccc2c1
- AC50 [1]: 35.5 µM [rising, single point]

SMILES: COc1cc(-c2nnc(SCc3c(F)cccc3Cl)o2)cc(OC)c1OC
- AC50 [1]: 32.6 µM [falling, single point]

SMILES: NC(=O)c1cc(-c2ccccc2)sc1NC(=O)CN1CCCCC1
- AC50 [1]: 2.06 µM [rising, full curve, poor fit]

SMILES: COc1ccc(/C=N/NC(=O)c2cccnc2)cc1COc1ccc(NC(C)=O)cc1
- AC50 [1]: 15.8 µM [rising, partial curve]
- AC50 [2]: 12.6 µM [falling, partial curve, poor fit]

SMILES: CCn1ncc(/C=N/O)c1C
- AC50 [1]: 0.411 µM [rising, full curve, poor fit]

SMILES: COc1ccccc1C1(O)C(=O)Nc2ccccc21 (stereo not drawn)
- AC50 [1]: 1.26 µM [rising, full curve, poor fit]

SMILES: Cc1ccc(S(=O)(=O)N2CCC(C(=O)N[C@@H](C)C(=O)NCCc3ccccc3)CC2)cc1
- AC50 [1]: 12.6 µM [rising, single point]

SMILES: CC(C)(C)c1ccc(C(=O)Nc2ccc(F)cc2)s1
- AC50 [1]: 6.31 µM [falling, partial curve]

SMILES: CCOc1ncccc1C(=O)OCC(=O)Nc1ccc(Cl)cn1
- AC50 [1]: 7.31 µM [falling, partial curve, poor fit]

SMILES: CCN(CC(=O)NC1CCCC1)S(=O)(=O)c1ccc(Br)cc1
- AC50 [1]: 20 µM [rising, single point]

SMILES: Cc1cccc(-n2c(CCn3nc(C)c([N+](=O)[O-])c3C)n[nH]c2=S)c1
- AC50 [1]: 29.1 µM [falling, single point]

SMILES: COc1ccc(C(=O)Nn2c(CCC(=O)O)ccc2-c2ccc(C)cc2)cc1OC
- AC50 [1]: 10 µM [rising, partial curve]

SMILES: Cc1c(NC(=O)C(C)OC(=O)c2cccnc2Cl)c(=O)n(-c2ccccc2)n1C (stereo not drawn)
- AC50 [1]: 2.06 µM [rising, full curve, poor fit]

SMILES: COc1cc2c(cc1NC(=O)c1cccc(S(=O)(=O)N(C)C)c1)oc1ccccc12
- AC50 [1]: 9.2 µM [falling, partial curve, poor fit]

SMILES: O=C(CC1SC2=NCCN2C1=O)Nc1ccc(Cl)cc1 (stereo not drawn)
- AC50 [1]: 6.51 µM [rising, partial curve, poor fit]

SMILES: COc1cccc(NC(=O)C(Cc2ccccc2)n2cccc2)c1 (stereo not drawn)
- AC50 [1]: 35.5 µM [falling, single point]

SMILES: Cc1ccccc1OCC(=O)OCC(=O)NCCNC(=O)COC(=O)COc1ccccc1C
- AC50 [1]: 0.291 µM [rising, full curve]

SMILES: O=C1CCC(C(=O)OCc2ccccc2)N1 (stereo not drawn)
- AC50 [1]: 16.4 µM [falling, single point]

SMILES: CN(C(=O)CN1C(=O)/C(=C/c2ccccc2F)SC1=S)C1CCS(=O)(=O)C1 (stereo not drawn)
- AC50 [1]: 15.8 µM [falling, partial curve, poor fit]

SMILES: N#Cc1ccccc1OCC(=O)NC(N)=O
- AC50 [1]: 29.1 µM [falling, single point]

SMILES: C/C(CC(=O)Nc1cccc(Cl)c1Cl)=N\NC(=O)c1ccccc1N
- AC50 [1]: 11.2 µM [falling, partial curve]

SMILES: CC(Oc1ccc(Cl)cc1Cl)C(=O)Nc1ncccn1 (stereo not drawn)
- AC50 [1]: 17.8 µM [falling, partial curve]

SMILES: CN(C)Cc1nc2ccccc2c(=O)n1CC#N
- AC50 [1]: 12.6 µM [rising, single point]

SMILES: Cc1cc(NS(=O)(=O)c2ccc(NC(=O)C(C)Oc3cc(C)c(Cl)c(C)c3)cc2)no1 (stereo not drawn)
- AC50 [1]: 14.1 µM [falling, single point]

SMILES: CCN(CC)S(=O)(=O)c1ccc(C(=O)NCCSc2c[nH]c3ccccc23)cc1
- AC50 [1]: 6.51 µM [rising, single point]
- AC50 [2]: 8.2 µM [falling, partial curve]

SMILES: C=CCC[C@H](Cc1ccc(F)cc1)C(=O)OC[C@@H](NC(=O)[C@@H](CC=C)CC(=O)N[C@@H](CO)Cc1ccccc1)C(C)(C)C
- AC50 [1]: 29.1 µM [falling, single point]

SMILES: CCCCn1c(=N)n(CC(O)COc2ccc(C)cc2)c2ccccc21 (stereo not drawn)
- AC50 [1]: 35.5 µM [falling, single point]

SMILES: O=C(COC(=O)CCc1ccccc1)NCc1ccccc1
- AC50 [1]: 1.03 µM [falling, full curve]

SMILES: Clc1ccc(-c2nc(NCCCN3CCOCC3)c3ccccc3n2)cc1
- AC50 [1]: 35.5 µM [falling, single point]

SMILES: COc1ccc(S(=O)(=O)NC2CCCC2)c(Cl)c1Cl
- AC50 [1]: 4.61 µM [rising, single point]

SMILES: O=C(/C=C/c1ccc(-c2ccccc2[N+](=O)[O-])o1)c1ccccc1
- AC50 [1]: 29.1 µM [falling, single point]
- AC50 [2]: 25.9 µM [falling, partial curve, poor fit]

SMILES: O=C(N/N=C/c1ccc(O)c(O)c1)N/N=C/c1ccc(O)c(O)c1
- AC50 [1]: 17.8 µM [falling, single point]

SMILES: Nc1nnc(CC(=O)N/N=C/c2ccc(-c3ccccc3)o2)s1
- AC50 [2]: 20.6 µM [rising, partial curve, poor fit]

SMILES: CCc1[nH]c(=O)c(C#N)c2c1COC(C)(C)C2
- AC50 [1]: 1.64 µM [falling, full curve, poor fit]

SMILES: CC(C)Nc1ncnc2c1cnn2-c1ccc(Cl)cc1
- AC50 [1]: 14.6 µM [falling, partial curve]

SMILES: CCC(Sc1nc2n[nH]c(C)c2c(=N)n1-c1cccc(Cl)c1C)C(=O)N(CC)CC (stereo not drawn)
- AC50 [1]: 0.794 µM [rising, full curve, poor fit]

SMILES: C=C(C)C(=O)OCC(C)C
- AC50 [1]: 18.4 µM [rising, partial curve, poor fit]

SMILES: O=C(NC1CCCCC1)c1cccnc1Sc1ccccc1Cl
- AC50 [1]: 3.16 µM [falling, single point]

SMILES: Cc1occc1C(=O)N/N=C/c1cnn(C)c1C
- AC50 [1]: 23.1 µM [falling, single point]

SMILES: Cc1c(NC(=O)c2cccc(NC(=O)c3ccco3)c2)cccc1C(=O)O
- AC50 [1]: 6.51 µM [falling, partial curve, poor fit]

SMILES: CCNC(=S)N1CCN(c2nc(CC)nc3sc4c(c23)CCCC4)CC1
- AC50 [1]: 4.47 µM [falling, partial curve]

SMILES: CCOC(=O)C1(Cc2ccc(Cl)cc2)CCN(C(=O)C2=NNC(=O)CC2)CC1
- AC50 [1]: 7.08 µM [rising, partial curve]

SMILES: Cc1ccc(S(=O)(=O)Nc2ccccc2N2CCCCC2)cc1
- AC50 [1]: 0.13 µM [falling, full curve, poor fit]

SMILES: Cc1ccc(CSc2nnc(-c3ccccn3)n2C)cc1
- AC50 [1]: 3.98 µM [rising, full curve, poor fit]

SMILES: CC1CCCN(c2nc3ccsc3c(=O)s2)C1 (stereo not drawn)
- AC50 [1]: 6.51 µM [falling, single point]

SMILES: O=C(NNC(=S)Nc1ccccc1)c1ccc2ncccc2c1
- AC50 [1]: 10 µM [falling, partial curve]

SMILES: Cn1c(-n2c(CCCN3C(=O)c4ccccc4C3=O)nc3ccccc3c2=O)nc2ccccc21
- AC50 [1]: 2 µM [falling, full curve]

SMILES: COC(=O)c1ccccc1N=Nc1c(C)noc1C
- AC50 [1]: 3.16 µM [falling, full curve, poor fit]

SMILES: NC(=O)C1CN(S(=O)(=O)c2ccc(Cl)cc2F)c2ccccc2O1 (stereo not drawn)
- AC50 [1]: 0.112 µM [falling, full curve, poor fit]

SMILES: CCc1nn(CCCC(=O)NCc2ccco2)c(=O)c2cc3occc3n12
- AC50 [1]: 20 µM [rising, partial curve, poor fit]

SMILES: Cc1ccc(C(=O)NCC(=O)NCC(=O)OCC(=O)c2cccs2)cc1
- AC50 [1]: 18.4 µM [rising, single point]

SMILES: COc1ccc(N2CCN(C(c3cccs3)C(C)NC(=O)c3ccc4c(c3)OCO4)CC2)cc1 (stereo not drawn)
- AC50 [1]: 35.5 µM [rising, single point]

SMILES: CC(C)c1ccc(N(C(=O)c2snc(C(N)=O)c2N)C(C(=O)NCC2CCCO2)c2ccc(N(C)C)cc2)cc1 (stereo not drawn)
- AC50 [1]: 2.24 µM [falling, full curve, poor fit]

SMILES: COc1ccc(C(=O)N[C@H](C(=O)OCC(=O)NC(=O)c2cccn2C)C(C)C)cc1
- AC50 [1]: 7.31 µM [falling, partial curve]

SMILES: O=[N+]([O-])c1cc(F)c2cccnc2c1O
- AC50 [2]: 10 µM [falling, partial curve]

SMILES: Cc1ccc2nc(-c3ccc4c(c3)NC(=O)CO4)cn2c1
- AC50 [1]: 0.891 µM [rising, full curve, poor fit]

SMILES: COc1ccccc1/C=C/C(=O)Nc1ccc2c(c1)OCCO2
- AC50 [1]: 20.6 µM [falling, partial curve, poor fit]

SMILES: Cc1nc(NC(=O)CSc2nnc3ccccn23)c(Cl)cc1Cl
- AC50 [1]: 28.2 µM [falling, single point]

SMILES: COc1ccc(-c2nc3c4ccccc4n(CC(=O)N4CCN(c5ccc(F)cc5)CC4)c(=O)n3n2)cc1
- AC50 [1]: 7.94 µM [falling, single point]
